System: mRBCs
Test: Binding/loading of Glu-Insulin to mouse RBCs (confocal, flow cytometry, ELISA)
Conditions: for Glu-Insulin attached to mRBCs (loading efficiency): 1×10^8 RBCs, 0.5 mg/mL Glu-Insulin in 500 μL PBS overnight
Description: Preparation of insulin loaded RBCs. Whole blood was collected from the B16 mice or from a human volunteer (The study protocol was approved by the Institutional Review Board at North Carolina State University). RBCs were separated from the whole blood by centrifugation (1000 g, 10 min) and washed thrice with cold PBS (300 mOsm, pH=8.0) to remove the glucose intracellularly. To load the insulin to RBC membrane, Glu-Insulin (0.5 mg/ml) was incubated with […] RBCs (1×10^8) under gentle stirring at 4° C. overnight. RBCs were washed thrice with cold PBS (300 mOsm, pH 8) to remove the unconjugated Glu-Insulin. Bound insulin was determined by ELISA assay.

Glu-Insulin: human recombinant insulin conjugated to two glucose (glucosamine) molecules via a bifunctional maleimide (Sulfo-SMCC/thiol) linker
Glu-Insulin attached to mRBCs (loading efficiency): 20%
Glu-Insulin attached to mRBCs (loading efficiency) (listed as glucose-insulin): approximately 20%
Glu-Insulin coupled per mRBC (ELISA): up to 5*10^−13 g per cell

— patent US11896673B2, “Glucose responsive insulin delivery compositions and methods” (NORTH CAROLINA STATE UNIVERSITY, priority 2016, dated 2024)
